# PubChem BioAssay AID504764 | Drosophila RNAi Screening Center – 2011
# Assay: 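Knock-downs that raise or lower a Notch target reporter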 (primary screen)
# Cells: Drosophila Kc167 cells
# Reagent: long dsRNA against Drosophila genes
# Time to read-out: about 5 days (4 days dsRNA, then 24 h after transfection)
# Treatment: transfection of constitutively active membrane-tethered Notch lacking the extracellular domain, read 24 h later
# Read-out: 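Light from a Notch-responsive E(spl)m3 luciferase reporter under active Notch, with control-promoter and no-Notch reporter wells to normalise; raw counts from paired wells a and b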
# Scale: induced reporter light, run 1, well a and induced reporter light, run 1, well b: higher = more light from the Notch target reporter with active Notch; control promoter light, run 1, well a and control promoter light, run 1, well b: higher = more light from the viral control promoter (cell number, transfection, viability); uninduced reporter light, run 1, well a: higher = more light from the Notch target reporter without active Notch
# Rule for the call: 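Wells with low control signal or poorly matching duplicates excluded; duplicates averaged; per source plate, z beyond ±2 for induced/control log2 ratio or beyond ±1.8 for induced/uninduced marks a hit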
# Calls: active = modifier hit (raised or lowered Notch signal); inactive = not a hit
# In all, the deposit lists about 22,000 reagents; below is an unselected part of those with a known target gene and a result. In the full data, 403 (1.9%) are marked active. 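Unnormalised raw counts per well; ratio z-scores behind the hit calls and whether each hit raises or lowers signal are not deposited.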 Reagents against one gene are numbered here. A plus sign joins genes that one reagent is predicted to hit. Not given: the amount of reagent.
gene,reagent no.,"induced reporter light, run 1, well a","induced reporter light, run 1, well b","control promoter light, run 1, well a","control promoter light, run 1, well b","uninduced reporter light, run 1, well a",Call
Acsl (Acyl-CoA synthetase long-chain),1,1.53e5,1.66e5,1.74e5,1.79e5,14370,inactive
Aldh7A1 (Aldehyde dehydrogenase 7 family member A1),1,1.13e5,1.22e5,72445,75165,7695,inactive
Cpr97Eb (Cuticular protein 97Eb),1,1.32e5,1.24e5,1.97e5,1.96e5,12845,inactive
Polr1H (RNA polymerase I subunit H),1,1.78e5,1.68e5,2.65e5,2.83e5,12005,inactive
AgmNAT (Agmatine N-acetyltransferase),1,1.75e5,1.54e5,3.58e5,2.98e5,10525,inactive
CG13921,1,90690,1.06e5,1.69e5,1.91e5,8540,inactive
CG15499 (retired record),1,1.41e5,1.25e5,1.64e5,1.69e5,9832,inactive
"ATPsynD (ATP synthase, subunit D)",1,53655,46980,66200,71395,4515,inactive
S2P (site-2 protease),1,91485,1.09e5,1.30e5,1.13e5,10420,inactive
CG9095,1,91620,95380,1.06e5,1.45e5,14740,inactive
cdi (center divider),1,1.72e5,1.85e5,2.29e5,2.28e5,16680,inactive
CG7872,1,98585,1.19e5,1.25e5,1.35e5,9040,inactive
CG3515,1,1.23e5,1.10e5,1.17e5,66510,8905,inactive
asRNA:CR33945 (antisense RNA:CR33945),1,88660,86765,86155,1.11e5,6360,inactive
pros (prospero),1,1.76e5,1.44e5,1.79e5,2.14e5,12270,inactive
pros (prospero),2,1.32e5,1.36e5,83580,81480,8670,inactive
pros (prospero),3,,,,,,inactive
loj (logjam),1,1.17e5,1.07e5,73100,37435,10950,inactive
CG8891,1,1.87e5,1.46e5,1.88e5,1.69e5,9660,inactive
CG9107,1,1.32e5,1.11e5,1.17e5,1.31e5,9230,inactive
CG7653,1,1.33e5,1.32e5,1.60e5,1.93e5,10100,inactive
CG17024 (retired record),1,1.35e5,1.60e5,1.49e5,2.07e5,13215,inactive
TwdlW (TweedleW),1,2.25e5,2.18e5,2.11e5,1.89e5,16115,inactive

Look-ups from the entries so far.
Aldh7A1 (Aldehyde dehydrogenase 7 family member A1), induced reporter light, run 1, well a → 1.13e5
For “Call”, CG7653 is entered as inactive
Value for Cpr97Eb (Cuticular protein 97Eb) in “control promoter light, run 1, well a”: 1.97e5
Entry of CG7872 in “control promoter light, run 1, well a”: 1.25e5
For “Call”, CG17024 (retired record) shows inactive
asRNA:CR33945 (antisense RNA:CR33945), Call = inactive

More results follow:
gene,reagent no.,"induced reporter light, run 1, well a","induced reporter light, run 1, well b","control promoter light, run 1, well a","control promoter light, run 1, well b","uninduced reporter light, run 1, well a",Call
IA-2 (IA-2 protein tyrosine phosphatase),1,1.70e5,1.89e5,1.88e5,1.69e5,15905,inactive
IA-2 (IA-2 protein tyrosine phosphatase),2,1.71e5,1.60e5,1.67e5,1.62e5,12810,inactive
Agxt (Alanine-glyoxylate aminotransferase),1,2.06e5,1.81e5,2.51e5,2.27e5,13765,inactive
kug (kugelei),1,1.75e5,1.80e5,88800,98705,10185,inactive
nmdyn-D7,1,76930,80755,89425,64155,5620,inactive
CG11444,1,1.48e5,1.54e5,2.37e5,2.24e5,9945,inactive
CG15027,1,90855,84925,1.20e5,95765,12470,inactive
CG5255,1,2.00e5,1.88e5,1.69e5,1.83e5,13925,inactive
sinu (sinuous),1,1.43e5,1.41e5,2.31e5,2.81e5,13295,inactive
CG14929 + CG4970 + CG14930,1,1.16e5,1.51e5,67990,96555,17838,inactive
tty (tweety),1,1.48e5,1.40e5,1.30e5,75935,10880,inactive
CG4641 (retired record),1,1.63e5,1.18e5,1.12e5,83645,14715,inactive
CG6870,1,1.43e5,1.48e5,1.45e5,1.91e5,11360,inactive
Adck5 (aarF domain containing kinase 5),1,1.30e5,1.43e5,1.80e5,1.52e5,8030,inactive
inaF-B,1,88465,70035,76600,60425,5085,inactive
CG14500,1,1.11e5,79010,1.24e5,1.24e5,8295,inactive
CG12507,1,77855,57010,71805,77180,8140,inactive
Sfxn2 (Sideroflexin 2),1,1.42e5,1.52e5,1.29e5,1.19e5,7915,inactive
Nop17l (Nop17 like),1,2.64e5,1.71e5,1.57e5,1.83e5,19160,inactive
CG14629,1,1.04e5,1.15e5,1.96e5,2.18e5,6820,inactive
Cpr78Cc (Cuticular protein 78Cc),1,1.00e5,90820,87000,1.06e5,4955,inactive
CG12071,1,3435,2800,5545,5825,2265,inactive
Nup358 (Nucleoporin 358kD),1,14480,16990,18890,19482,1065,active
mAcon1 (Mitochondrial aconitase 1),1,36370,28235,44220,42325,2380,inactive
Ubr1 (Ubr1 ubiquitin ligase),1,76495,87110,90390,61420,8310,inactive
NimB2 (Nimrod B2),1,,,,,,inactive
"Alg12 (Alg12 alpha-1,6-mannosyltransferase)",1,85250,1.10e5,89210,63065,5095,inactive
corolla,1,1.24e5,1.15e5,91240,56575,9910,inactive
TwdlC (TweedleC),1,1.63e5,1.43e5,2.29e5,1.95e5,14420,inactive
arm (armadillo),1,1.93e5,2.38e5,2.27e5,2.61e5,16540,inactive
BckdhB (Branched chain keto acid dehydrogenase E1 subunit beta),1,86445,74200,1.08e5,1.31e5,9345,inactive
Muc4B (Mucin 4B),1,1.45e5,1.17e5,3.18e5,2.47e5,9445,inactive
Muc4B (Mucin 4B),2,1.31e5,1.60e5,2.26e5,1.93e5,10960,inactive
CG18581,1,1.71e5,1.50e5,3.00e5,2.68e5,9695,inactive
Ets96B,1,1.46e5,1.36e5,1.59e5,1.28e5,10520,inactive
"Edem1 (ER degradation enhancer, mannosidase alpha-like 1)",1,1.96e5,1.70e5,2.41e5,2.53e5,13450,inactive
CG17746,1,1.70e5,1.71e5,85665,24495,12160,active
CG8248,1,1.98e5,1.87e5,1.56e5,1.85e5,17975,inactive
Lip2 (Lipase 2),1,95645,1.19e5,62995,80775,15530,inactive
Lip2 (Lipase 2),2,98095,1.11e5,73845,83320,15900,inactive
CG31288,1,1.58e5,1.32e5,1.80e5,1.99e5,12690,inactive
